US20200223912A1
These are yes or no findings as the source states them, for the method shown. For some of these results: Binding calls can cover weak binding; strength is not graded here.

How the values were obtained:
[1] = target: KLH (keyhole limpet haemocyanine); test: condition: 1:5 dilution of the cell culture supernatants; ELISA, single point
[2] = target: microtubuli associated tau; test: ELISA
[3] = target: pTau(S422A) (human); test: Western blot on recombinant Tau, all antibodies 1 ug/ml

B1: rabbit antibody Mab 086 (VH00/VL00) (antibody, V domains shown)
VH: QSVEESGGRLVTPGTPLTLTCTVSGFSLSSNAINWVRQAPGKGLEWIGYIAVSGNTYYASWAKGRFTISKASTTVDLKMTSPTAEDTGTYFCGKSNIWGPGTLVTVSL
VL: AQVLTQTTSPVSAAVGSTVTISCQSSQSVRTNKLAWFQQKPGQPPKRLIYSASTLDFGVPSRFSASGSGTQFTLTISDVQCDDAATYYCLGYFDCSIADCVAFGGGTEVVVK
binding [1]: no binding
binding [2]: no binding
binding [3]: binds

B2: VH32/VL21 (antibody, V domains shown)
VH: EVQVLESGGGLVQPGGSLRLSCAVSGFSLSSNAINWVRQAPGKGLEWVGYIAVSGNTYYASWAKGRFTISRDNSKNTVYLQMNSLRAEDTAVYYCGKSNIWGQGTLVTVSS
VL: AQVMTQSPSSLSASVGDRVTITCRSSQSVRTNKLAWFQQKPGQPPKRLIYSASTLDFGVPSRFSGSGSGTEFTLTISSLQPEDFATYYCLGYFDSSADIVAFGGGTKVEIK
binding [2]: no binding
binding [3]: no binding (tested: 1 ug/ml)

B3: VH32/VL22 (antibody, V domains shown)
VH: EVQVLESGGGLVQPGGSLRLSCAVSGFSLSSNAINWVRQAPGKGLEWVGYIAVSGNTYYASWAKGRFTISRDNSKNTVYLQMNSLRAEDTAVYYCGKSNIWGQGTLVTVSS
VL: AQVMTQSPSSLSASVGDRVTITCRSSQSVRTNRLAWFQQKPGQPPKRLIYSASTLDYGVPSRFSGSGSGTEFTLTISSLQPEDFATYYCLGYFDSSADIVAFGGGTKVEIK
binding [2]: no binding
binding [3]: no binding (tested: 1 ug/ml)
